Reference: PubChem BioAssay AID743454 (Peter MacCallum Cancer Centre, 2014)
The whole screen tested about 18,000 reagents; this is an unselected part. 450 of all reagents (2.5%) count as active. 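Single biological run; no consistent viability z cut-off exists, so the class columns, not z-scores, define the calls.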

Screen: 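Search for knock-downs that restore vorinostat killing in resistant colon cancer cells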 (primary screen)
Cell system: human HCT116-VR colon cancer cells, selected for vorinostat resistance
Knock-down reagent: siRNA pool against human genes, 40 nM siRNA pool
Duration: vorinostat for 24 h, read-out about 72 h after transfection
Conditions: vorinostat at 2.5 µM final
Read-out: 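Cell viability by CellTiter-Fluor and caspase 3/7 activity by luminescence, each scaled to mock wells per plate, duplicates averaged, then robust z-scored over all plates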
Reading the numbers: viability robust z-score: higher = more viable cells than screen typical; caspase robust z-score: higher = more caspase 3/7 activity than screen typical
Call rule: 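Hits are knock-downs in viability class RV1/RV2 or caspase class CA1/CA2, excluding ones that killed cells in the no-drug cell-count arm; hits then retested with single siRNAs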

| gene knocked down | PubChem SID | viability hit class | caspase hit class | viability robust z-score | caspase robust z-score | Outcome |
| --- | --- | --- | --- | --- | --- | --- |
| ACE | SID134311183 | no change | no change | 0.2 | 0.15 | inactive |
| HSP90AB1 | SID135620951 | no change | no change | 0.7 | 2.15 | inactive |
| ACOT1 | SID135625418 | no change | no change | 0.66 | -0.93 | inactive |
| PPA2 | SID152151987 | no change | no change | -1.02 | 0.84 | inactive |
| RGN | SID152156481 | no change | no change | -0.49 | 1.28 | inactive |
| PSG2 | SID135622800 | no change | no change | 0.46 | -1.13 | inactive |
| DCUN1D4 | SID152152248 | no change | no change | -1.2 | 2.82 | inactive |
| NRG4 | SID152150417 | no change | no change | 0.19 | 0.04 | inactive |

Next part, starting with the last 2 of the part before.
| gene knocked down | PubChem SID | viability hit class | caspase hit class | viability robust z-score | caspase robust z-score | Outcome |
| --- | --- | --- | --- | --- | --- | --- |
| DCUN1D4 | SID152152248 | no change | no change | -1.2 | 2.82 | inactive |
| NRG4 | SID152150417 | no change | no change | 0.19 | 0.04 | inactive |
| SH2D1A | SID135621945 | no change | no change | 0.56 | 1.36 | inactive |
| EEF1E1 | SID152154019 | no change | no change | -2.54 | 4.29 | inactive |
| HJURP | SID152155605 | no change | no change | -0.82 | -0.9 | inactive |
| SLC38A5 | SID134312608 | no change | no change | 0.42 | -0.18 | inactive |
| TSPAN33 | SID134322181 | no change | no change | 0.32 | -0.68 | inactive |
| LAPTM5 | SID134323639 | no change | no change | 0.57 | 0.05 | inactive |
| HESX1 | SID134323304 | no change | no change | -0.74 | 4.2 | inactive |
| WDR83OS | SID152154947 | no change | no change | -0.78 | 2.94 | inactive |
| GPBP1L1 | SID134320453 | no change | no change | -0.96 | -0.04 | inactive |
| MTA2 | SID134313353 | no change | no change | -1.41 | 3.32 | inactive |
| EIF1AD | SID135623474 | no change | no change | 1.38 | 0.66 | inactive |
| CLPTM1 | SID152151861 | no change | no change | -0.27 | -0.24 | inactive |
| GREM1 | SID152151693 | no change | no change | -1.19 | -0.17 | inactive |
| SPRY2 | SID134310804 | no change | no change | 1.16 | -0.42 | inactive |
| IFNGR2 | SID134316973 | no change | no change | 0.56 | 0.74 | inactive |
